Measurements published in article PMC10801393 (Clinical and Translational Science, 2024).
Read-outs that look alike come from different tables or passages of the source.

Key:
[1] = 120 mg single oral dose
[2] = healthy volunteers; 120 mg single oral dose; cited from earlier work
clinical = details: female, human, in vivo, 120 mg, AUCinf

For `CC(C)(C(=O)O)c1ccc(C(O)CCCN2CCC(C(O)(c3ccccc3)c3ccccc3)CC2)cc1` (stereo not drawn) [fexofenadine, Fexofenadine], the CL/F ([1]; ABCB1 3435 wild type) is listed as 169.25 L/h, the CL/F ([1]; carriers of the ABCB1 3435 allele T) is listed as 139.51 L/h and the C max range [2] is listed as 31 to 177 ng/mL. It also gave an AUC(0-inf) (clinical; carriers of two copies of the reference GCG haplotype (ABCB1 diplotype)) of 726 ng·h/mL, an AUC(0-inf) (clinical; does not carry any CGC haplotype (ABCB1 diplotype)) of 724 ng·h/mL and an AUC(0-inf) (clinical; one copy of GCG haplotype (ABCB1 diplotype)) of 837 ng·h/mL.
